# The supplement of paper PMC8728848
# The other results are listed elsewhere or left out.
# How the values were obtained:
# Assay in all cases: glycan array binding signal (z-score within array); higher = stronger binding
# Conditions in all cases: glycan notation: IUPAC condensed, linker removed
# [1] = biological target: Gal(a1-3)[Gal(a1-4)]Gal(b1-4)GlcNAc
# Outline: (§1)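 Glycan array binding is given as a within-array Z-score, which can be read as non-binding when negative. The arrays, 3228 of them, came from the Consortium for Functional Glycomics database and were retained only where the protein sequence was available. Z-scores were averaged across arrays of the same protein sequence at different concentrations or buffers and across linkers.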
# [2] = biological target: Gal(a1-4)Gal(b1-3)GlcNAc(b1-2)Man(a1-3)[Gal(a1-4)Gal(b1-3)GlcNAc(b1-2)Man(a1-6)]Man(b1-4)GlcNAc(b1-4)GlcNAc
# Outline: as §1
# Gal(a1-4)Gal(b1-4)Glc = biological target: Gal(a1-4)Gal(b1-4)Glc
# Outline: as §1
# Gal(a1-4)Gal(b1-4)GlcNAc = biological target: Gal(a1-4)Gal(b1-4)GlcNAc
# Outline: as §1
# [3] = biological target: Gal(a1-4)Gal(b1-4)GlcNAc(b1-2)Man(a1-3)[Gal(a1-4)Gal(b1-4)GlcNAc(b1-2)Man(a1-6)]Man(b1-4)GlcNAc(b1-4)GlcNAc
# Outline: as §1
# [4] = biological target: Gal(a1-4)Gal(b1-4)GlcNAc(b1-3)Gal(b1-4)Glc
# Outline: as §1
# Gal(a1-4)GlcNAc = biological target: Gal(a1-4)GlcNAc
# Outline: as §1
# Gal(a1-6)Glc = biological target: Gal(a1-6)Glc
# Outline: as §1
# Gal(b1-2)Gal = biological target: Gal(b1-2)Gal
# Outline: as §1
# Gal(b1-3)Gal = biological target: Gal(b1-3)Gal
# Outline: as §1
# Gal(b1-3)Gal(b1-4)GlcNAc = biological target: Gal(b1-3)Gal(b1-4)GlcNAc
# Outline: as §1
# Gal(b1-3)GalNAc = biological target: Gal(b1-3)GalNAc
# Outline: as §1
# [5] = biological target: Gal(b1-3)GalNAc(a1-3)[Fuc(a1-2)]Gal(b1-4)Glc
# Outline: as §1
# [6] = biological target: Gal(b1-3)GalNAc(a1-3)[Fuc(a1-2)]Gal(b1-4)GlcNAc
# Outline: as §1
# Gal(b1-3)GalNAc(b1-3)Gal = biological target: Gal(b1-3)GalNAc(b1-3)Gal
# Outline: as §1
# [7] = biological target: Gal(b1-3)GalNAc(b1-3)Gal(a1-4)Gal(b1-4)Glc
# Outline: as §1
# [8] = biological target: Gal(b1-3)GalNAc(b1-4)Gal(b1-4)Glc
# Outline: as §1
# [9] = biological target: Gal(b1-3)GalNAc(b1-4)[Neu5Ac(a2-3)]Gal(b1-4)Glc
# Outline: as §1
# Gal(b1-3)GlcNAc = biological target: Gal(b1-3)GlcNAc
# Outline: as §1
# [10] = biological target: Gal(b1-3)GlcNAc(a1-3)Gal(b1-4)GlcNAc
# Outline: as §1
# [11] = biological target: Gal(b1-3)GlcNAc(a1-6)Gal(b1-4)GlcNAc
# Outline: as §1
# Gal(b1-3)GlcNAc(b1-2)Man = biological target: Gal(b1-3)GlcNAc(b1-2)Man
# Outline: as §1
# [12] = biological target: Gal(b1-3)GlcNAc(b1-2)Man(a1-3)[Gal(b1-3)GlcNAc(b1-2)Man(a1-6)]Man(b1-4)GlcNAc(b1-4)GlcNAc
# Outline: as §1
# [13] = biological target: Gal(b1-3)GlcNAc(b1-2)Man(a1-3)[Gal(b1-3)GlcNAc(b1-2)Man(a1-6)]Man(b1-4)GlcNAc(b1-4)[Fuc(a1-6)]GlcNAc
# Outline: as §1
# [14] = biological target: Gal(b1-3)GlcNAc(b1-2)Man(a1-3)[GlcNAc(b1-4)][Gal(b1-3)GlcNAc(b1-2)Man(a1-6)]Man(b1-4)GlcNAc(b1-4)GlcNAc
# Outline: as §1
# [15] = biological target: Gal(b1-3)GlcNAc(b1-2)[Gal(b1-3)GlcNAc(b1-6)]Man(a1-6)[Gal(b1-3)GlcNAc(b1-2)Man(a1-3)]Man(b1-4)GlcNAc(b1-4)GlcNAc
# Outline: as §1
# [16] = biological target: Gal(b1-3)GlcNAc(b1-3)Gal(b1-3)GlcNAc
# Outline: as §1
# [17] = biological target: Gal(b1-3)GlcNAc(b1-3)Gal(b1-4)Glc
# Outline: as §1
# [18] = biological target: Gal(b1-3)GlcNAc(b1-3)Gal(b1-4)GlcNAc
# Outline: as §1
# [19] = biological target: Gal(b1-3)GlcNAc(b1-3)Gal(b1-4)GlcNAc(b1-2)Man(a1-3)[Gal(b1-3)GlcNAc(b1-3)Gal(b1-4)GlcNAc(b1-2)Man(a1-6)]Man(b1-4)GlcNAc(b1-4)GlcNAc
# Outline: as §1
# [20] = biological target: Gal(b1-3)GlcNAc(b1-3)Gal(b1-4)GlcNAc(b1-2)[Gal(b1-3)GlcNAc(b1-3)Gal(b1-4)GlcNAc(b1-6)]Man(a1-6)[Gal(b1-3)GlcNAc(b1-3)Gal(b1-4)GlcNAc(b1-2)Man(a1-3)]Man(b1-4)GlcNAc(b1-4)[Fuc(a1-6)]GlcNAc
# Outline: as §1
# [21] = biological target: Gal(b1-3)GlcNAc(b1-3)Gal(b1-4)GlcNAc(b1-3)Gal(b1-4)GlcNAc(b1-2)[Gal(b1-3)GlcNAc(b1-3)Gal(b1-4)GlcNAc(b1-3)Gal(b1-4)GlcNAc(b1-6)]Man(a1-6)[Gal(b1-3)GlcNAc(b1-3)Gal(b1-4)GlcNAc(b1-3)Gal(b1-4)GlcNAc(b1-2)Man(a1-3)]Man(b1-4)GlcNAc(b1-4)[Fuc(a1-6)]GlcNAc
# Outline: as §1
# [22] = biological target: Gal(b1-3)GlcNAc(b1-3)Gal(b1-4)GlcNAc(b1-6)[Gal(b1-3)GlcNAc(b1-3)]Gal(b1-4)Glc
# Outline: as §1
# [23] = biological target: Gal(b1-3)GlcNAc(b1-3)Gal(b1-4)[Fuc(a1-3)]GlcNAc
# Outline: as §1
# [24] = biological target: Gal(b1-3)GlcNAc(b1-3)Gal(b1-4)[Fuc(a1-3)]GlcNAc(b1-6)[Gal(b1-3)GlcNAc(b1-3)]Gal(b1-4)Glc
# Outline: as §1
# [25] = biological target: Gal(b1-3)GlcNAc(b1-3)GalNAc
# Outline: as §1
# [26] = biological target: Gal(b1-3)GlcNAc(b1-6)Gal(b1-4)GlcNAc
# Outline: as §1
# [27] = biological target: Gal(b1-3)GlcNAc(b1-6)GalNAc
# Outline: as §1
binder,measurement,setting,value
"SAOUHSC 02783 (Staphylococcus aureus), Q5HD69 (protein) MIHSKKLTLGICLVLLIILIVGYVIMTKTNGRNAQIKDTFNQTLKLYPTKNLDDFYDKEGFRDQEFKKGDKGTWIVNSEMVIEPKGKDMETRGMVLYINRNTRTTKGYYFISEMTDDSNGRPKDDEKRYPVKMEHNKIIPTKPLPNDKLKKEIENFKFFVQYGNFKDINDYKDGDISYNPNVPSYSAKYQLNNDDYNVQQLRKRYDIPTKQAPKLLLKGDGDLKGSSVGSRSLEFTFVENKEENIYFTDSVQYTPSEDTRYESN",glycan array binding signal (z-score),[1],0.258
same,glycan array binding signal (z-score),[2],0.113
same,glycan array binding signal (z-score),Gal(a1-4)Gal(b1-4)Glc,0.717
same,glycan array binding signal (z-score),Gal(a1-4)Gal(b1-4)GlcNAc,-0.183
same,glycan array binding signal (z-score),[3],1.84
same,glycan array binding signal (z-score),[4],-1.38
same,glycan array binding signal (z-score),Gal(a1-4)GlcNAc,-0.528
same,glycan array binding signal (z-score),Gal(a1-6)Glc,-0.842
same,glycan array binding signal (z-score),Gal(b1-2)Gal,-0.647
same,glycan array binding signal (z-score),Gal(b1-3)Gal,0.581
same,glycan array binding signal (z-score),Gal(b1-3)Gal(b1-4)GlcNAc,-0.045
same,glycan array binding signal (z-score),Gal(b1-3)GalNAc,-0.367
same,glycan array binding signal (z-score),[5],0.687
same,glycan array binding signal (z-score),[6],-1.73
same,glycan array binding signal (z-score),Gal(b1-3)GalNAc(b1-3)Gal,-0.932
same,glycan array binding signal (z-score),[7],0.397
same,glycan array binding signal (z-score),[8],-0.054
same,glycan array binding signal (z-score),[9],-0.478
same,glycan array binding signal (z-score),Gal(b1-3)GlcNAc,0.236
same,glycan array binding signal (z-score),[10],0.557
same,glycan array binding signal (z-score),[11],-0.724
same,glycan array binding signal (z-score),Gal(b1-3)GlcNAc(b1-2)Man,-0.642
same,glycan array binding signal (z-score),[12],-0.607
same,glycan array binding signal (z-score),[13],0.331
same,glycan array binding signal (z-score),[14],3.09
same,glycan array binding signal (z-score),[15],-0.653
same,glycan array binding signal (z-score),[16],-1.32
same,glycan array binding signal (z-score),[17],-0.527
same,glycan array binding signal (z-score),[18],0.894
same,glycan array binding signal (z-score),[19],-1.28
same,glycan array binding signal (z-score),[20],0.178
same,glycan array binding signal (z-score),[21],-0.241
same,glycan array binding signal (z-score),[22],0.465
same,glycan array binding signal (z-score),[23],0.724
same,glycan array binding signal (z-score),[24],0.299
same,glycan array binding signal (z-score),[25],-0.237
same,glycan array binding signal (z-score),[26],-0.152
same,glycan array binding signal (z-score),[27],-0.347

# Already shown: an excerpt of the list.
binder,measurement,setting,value
"SAOUHSC 02783 (Staphylococcus aureus), Q5HD69 (protein) MIHSKKLTLGICLVLLIILIVGYVIMTKTNGRNAQIKDTFNQTLKLYPTKNLDDFYDKEGFRDQEFKKGDKGTWIVNSEMVIEPKGKDMETRGMVLYINRNTRTTKGYYFISEMTDDSNGRPKDDEKRYPVKMEHNKIIPTKPLPNDKLKKEIENFKFFVQYGNFKDINDYKDGDISYNPNVPSYSAKYQLNNDDYNVQQLRKRYDIPTKQAPKLLLKGDGDLKGSSVGSRSLEFTFVENKEENIYFTDSVQYTPSEDTRYESN",glycan array binding signal (z-score),[14],3.09
same,glycan array binding signal (z-score),[15],-0.653
